In patent US7083511B1, “Methods” (The University of Dundee, priority 1998, dated 2006):
At least one compound was matched to its structure with a doubt left.

Experiments:
[1] = system: SGK3; assay: Activation of GST-SGK3 in transfected 293 cells (Example 5); format: cell-based, human; conditions: 100 nM wortmannin 10 min or 100 μM LY294002 1 h, then 2 mM H2O2 25 min
Description: (§1) Cells were transiently transfected with DNA constructs expressing (A) GST-SGK1, (B), GST-SGK2α and (C) GST-SGK3. At 24 h after transfection, the cells were deprived of serum for 16 h, then exposed to 50 ng/ml IGF-1 (10 min), 400 ng/ml phorbol myristate acetate (PMA) (30 min), 10% serum (30 min), 1 μM dexamethasone (Dex, 60 min), 2 mM H2O2 (25 min), 5 μg/ml anisomycin (AN, 30 min), 0.4 M sorbitol (30 min), hypotonic stress (1 ml of water added to 3 ml of DMEM, 30 min), UV radiation (30 min after exposure to 200 J/m2) or left untreated (control). After each treatment, the cells were lysed in ice-cold lysis buffer and SGK activity in 100 μg of cell lysate protein was measured.
(§2) FIG. 20. […] Cells were transiently transfected with DNA constructs expressing (A) GST-SGK1, (B) GST-SGK2α and (C) GST-SGK3. At 24 h after transfection, the cells were deprived of serum for 16 h. The transfectants were then pretreated for 10 min with 100 nM wortmannin or for 1 h with 100 μM LY294002 and then stimulated for 25 min with 2 mM H2O2.
(§3) Expression of SGK isoforms in 293 cells. […] After each treatment, the cells were lysed and the activity of SGK isoforms was measured after affinity purification of the GST-fusion proteins on glutathione Sepharose, as described previously for SGK1 [18].

[2] = system: SGK2α; assay: Activation of GST-SGK2α in transfected 293 cells (Example 5); format: cell-based, human; conditions: 100 nM wortmannin 10 min or 100 μM LY294002 1 h, then 2 mM H2O2 25 min
Description: as §1, §2, §3

[3] = system: SGK1; assay: Activation of GST-SGK1 in transfected 293 cells (Example 5); format: cell-based, human; conditions: 100 nM wortmannin 10 min or 100 μM LY294002 1 h, then 2 mM H2O2 25 min
Description: as §1, §2, §3

[4] = system: SGK3 mRNA; assay: Induction of SGK3 mRNA, Northern blotting; format: cell-based, rat; conditions: Rat2 fibroblasts; 10% serum or 1 μM dexamethasone, 2 h
[5] = system: SGK2 mRNA; assay: Induction of SGK2 mRNA, Northern blotting; format: cell-based, rat; conditions: H4IIE hepatoma cells; 10% serum or 1 μM dexamethasone, 2 h
[6] = system: SGK1 mRNA; assay: Induction of SGK1 mRNA, Northern blotting; format: cell-based, rat; conditions: 10% serum or 1 μM dexamethasone, 2 h
[7] = system: SGK; assay: Activation of GST-SGK in transfected 293 cells (Example 1); format: cell-based, human; conditions: for Effect of pre-incubation on IGF-1 or hydrogen peroxide induced activation of SGK: 293 cells, wortmannin 100 nM 10 min

Structure (SMILES)	Effect of preincubation on hydrogen peroxide induced activation of SGK3 [1]	Effect of preincubation on hydrogen peroxide induced activation of SGK2 [2]	Effect of preincubation on hydrogen peroxide induced activation of SGK1 [3]	Effect on level of SGK3 mRNA [4]	Effect on level of SGK2 mRNA [5]	Effect on level of SGK1 mRNA ([6]; H4IIE hepatoma cells)	Effect on level of SGK1 mRNA ([6]; Rat2 fibroblasts)	Effect of pre-incubation on IGF-1 or hydrogen peroxide induced activation of SGK [7]	Effect on high basal activity of GST-SGK[S422D] ([7]; 293 cells preincubated with 100 nM wortmannin 30 min)
O=c1cc(N2CCOCC2)oc2c(-c3ccccc3)cccc12 [LY 294002]	only inhibited partially	only inhibited partially	abolished						
C[C@@H]1C[C@H]2[C@@H]3CCC4=CC(=O)C=C[C@]4(C)[C@@]3(F)[C@@H](O)C[C@]2(C)[C@@]1(O)C(=O)CO [dexamethasone]				not affected	unaffected	induced the formation of SGK1 mRNA	strongly induced		
CO[C@H]1C[C@@H]2CC[C@@H](C)[C@@](O)(O2)C(=O)C(=O)N2CCCC[C@H]2C(=O)O[C@H]([C@H](C)C[C@@H]2CC[C@@H](O)[C@H](OC)C2)CC(=O)[C@H](C)/C=C(\C)[C@@H](O)[C@@H](OC)C(=O)[C@H](C)C[C@H](C)/C=C/C=C/C=C/1C [rapamycin]								had no effect	
COC[C@H]1OC(=O)c2coc3c2[C@@]1(C)C1=C(C3=O)[C@@H]2CCC(=O)[C@@]2(C)C[C@H]1OC(C)=O [wortmannin]	only inhibited partially	only inhibited partially	abolished					strongly suppressed	did not affect
